The data set in a line: Pharmacokinetic evaluation in monkey, single intravenous dosage. The following applies: single intravenous dosage (2 mg/kg), LC/MS/MS.

Structures are written as SMILES.

On to `CC(C)NCC(O)COc1ccc(CC(N)=O)cc1` (stereo not shown) [ATENOLOL, reference compound], for which the “AUC (total area under the plasma concentration versus time curve)” value is 5021 ng·h/mL.
